# Test results taken from PubChem BioAssay AID1259415 (National Center for Advancing Translational Sciences (NCATS), 2018).
# The whole screen tested about 410,000 compounds, of which about 18,000 (4.4%) were called active. Inconclusive results, whose numbers are uncertain, are shown with a selection of clear calls. Rule as the data show it: active = activity change below about -60%; inconclusive = no clear call, values can overlap the other calls; inactive = above about -39%.
# Test: qHTS Assay for inhibitors of the human cytomegalovirus (HCMV)
# Conditions: HFF cells, HCMV-luciferase reporter, 72 h; at 57.5 µM; hits give low values
# Method in brief: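 Luciferase read-out from HCMV-luciferase-infected HFFs (MOI 1 PFU/cell) 72 h post infection at 37C; compounds added after 16 h cell attachment; activity normalized between buffer-only basal and Salinomycin (10uM) inhibitor controls.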
# % is scaled to controls: 0 for no effect and ±100 for the full control effect.
row,SMILES,"activity change, negative = inhibition"
1,CCOC(=O)C1CCCN(C(=O)c2ccc(S(=O)(=O)Nc3ccccc3OC)cc2)C1 (stereo not given),inactive: -29.7%
2,Cc1ccc(SCC(=O)N(C)C2CCS(=O)(=O)C2)c(C)c1 (stereo not given),inactive: -3.15%
3,N#Cc1cccc(NC(=O)CCNC(=O)c2ccccc2Cl)c1,inconclusive: -43.1%
4,COc1cccc(-c2cc(C(=O)Nc3cnn(Cc4ccc(Cl)cc4Cl)c3)no2)c1,inconclusive: -53.2%
5,Cc1ccc(S(=O)(=O)/N=C2\C=C(NS(=O)(=O)c3ccccc3)C(=O)c3ccccc32)cc1,inactive: 0%
6,COc1ccc(S(=O)(=O)N(CC(=O)Nc2ccc(S(=O)(=O)N3CCOCC3)cc2)c2ccccc2)cc1,active: -85%
7,CCOCCCn1c(=N)c(C(=O)NCc2ccc3c(c2)OCO3)cc2c(=O)n3cccc(C)c3nc21,inconclusive: -47.5%
8,COc1cc(/C=N/N2CCOCC2)ccc1OCc1ccccc1,active: -105%
9,CCOC(=O)/C(C#N)=C\c1ccc(CC)s1,inactive: -33.2%
10,COc1ccccc1Nc1nnc(SCC(=O)Nc2nc(-c3ccc(F)cc3)cs2)s1,active: -88.2%
11,CC(=O)Nc1ccc(Nc2nc(-c3c(C)nc4ccccn34)cs2)cc1,inconclusive: -58.1%
12,Cn1c(CNS(=O)(=O)c2ccc(Cl)cc2)cc(=O)n(C)c1=O,inactive: -19.4%
13,O=C(CCN1C(=O)/C(=C\c2cccc(Br)c2)SC1=S)NCCCN1CCOCC1,inconclusive: -42.2%
14,CN(C)CCNc1ccc(CO)c2oc3ccc(O)cc3c(=O)c12,active: -99.1%
15,CC(C)Cn1c(N)c(C(=O)NCCN2CCOCC2)c2nc3ccccc3nc21,inconclusive: -54.9%
16,Cc1cc2cc(C(c3nnnn3Cc3ccccc3)N3CCc4ccccc43)c(=O)[nH]c2cc1C (stereo not given),inactive: 34.7%
17,Cc1c(/C(O)=C2/C(=O)C(=O)N(CCN3CCOCC3)C2c2cccs2)cnn1-c1ccccc1 (stereo not given),inconclusive: -58.4%
18,COC(=O)CCC(=O)NC(=S)Nc1cc(Cl)ccc1Cl,inactive: 0.0234%
19,O=C(CSc1nc2[nH]c(=O)[nH]c(=O)c2s1)Nc1cccc(F)c1,inconclusive: -51%
20,COc1ccc(/C=N/n2c(C)nc3sc(C)c(C)c3c2=O)cc1,inconclusive: -48.4%
21,CCOC(=O)c1[nH]c(C)c(CN(C(C)=O)c2ccc(OCC)cc2)c1C,inconclusive: -40.4%
22,COc1ccc(C(=O)c2c(C)c3cc(C)ccc3n2CC(O)CN2CCOCC2)cc1 (stereo not given),inactive: 9.46%
23,CCC(=O)N1CCN(c2ccccc2NC(=O)COc2cccc(C)c2C)CC1,active: -63.8%
24,Cc1ccc(NC(=O)NCC(c2ccccc2)N(C)C)cc1 (stereo not given),inconclusive: -51.5%
25,O=C(NC1CCCCC1)C(c1ccncc1)N(C(=O)c1csnn1)c1ccccc1 (stereo not given),inactive: -5.06%
26,CN(c1ccccc1C(=O)NC1CCCCC1)S(=O)(=O)c1ccccc1,inconclusive: -47.4%
27,CC1CCN(S(=O)(=O)c2cc(C(=O)N3CCN(c4ccccc4)CC3)ccc2Br)CC1,active: -76.1%
28,O=C(c1ccc(CNS(=O)(=O)c2ccccc2)cc1)N1CCN(c2ccccn2)CC1,inactive: -25.8%

# In the list so far, 2 contain bromine:
row,SMILES,"activity change, negative = inhibition"
13,O=C(CCN1C(=O)/C(=C\c2cccc(Br)c2)SC1=S)NCCCN1CCOCC1,inconclusive: -42.2%
27,CC1CCN(S(=O)(=O)c2cc(C(=O)N3CCN(c4ccccc4)CC3)ccc2Br)CC1,active: -76.1%

# Additional entries

row,SMILES,"activity change, negative = inhibition"
1,Cc1nn(Cc2ccccc2)c(C)c1/C=N/NC(=O)CNc1cccc(C(F)(F)F)c1,inactive: 37%
2,N#Cc1cccnc1N1CCN(C(=O)c2cccs2)CC1,inconclusive: -54.1%
3,CC/C(=N\N1CCCCCC1)c1c(O)n(-c2ccccc2C)c(=O)[nH]c1=O,inconclusive: -50.7%
4,Cc1no[n+]([O-])c1COc1ccc(/C=C(\C#N)C(N)=O)cc1,inconclusive: -48.7%
5,CCOC(=O)N1CCC(NC(=O)C2CCC(CNS(=O)(=O)c3ccc(OC)cc3)CC2)CC1 (stereo not given),inconclusive: -46%
6,Cc1ccc2sc(-c3ccc(NC(=O)c4cc(-n5cnnc5)ccc4Cl)cc3)nc2c1,inconclusive: -54%
7,O=c1ccc2cc(S(=O)(=O)N3CCN(c4ccccc4F)CC3)ccc2o1,inconclusive: -50.4%
8,CCCC(=O)N1CCN(c2nc(CC(C)C)c3c(c2C#N)CCC3)CC1,inconclusive: -45.9%
9,Cc1nnc(NC(=O)c2cccc(S(=O)(=O)N3CCN(C)CC3)c2)s1,inactive: 0.175%
10,COC(=O)CN1C(=O)CSc2ccc(S(=O)(=O)Nc3ccc(C)c(Cl)c3)cc21,inconclusive: -46%
11,COc1cccc(NC(=O)CSc2nnnn2C2CCCC2)c1,inconclusive: -51.6%
12,Cc1ccc(-c2csc(Cc3nc(-c4cc5ccccc5oc4=O)cs3)n2)cc1,active: -79.7%
13,O=c1c2ccccc2nc(/C=C/c2ccc(Br)cc2)n1CCCO,active: -71.2%
14,O=C(CNS(=O)(=O)c1ccc(F)c(Cl)c1)N1CCCC1,inconclusive: -52.6%
15,Cc1cccn2c(=O)nc(SCC(=O)N3CCN(c4ccccc4)CC3)nc12,inactive: -3.52%
16,Cc1cc(/C=N/NC(=O)c2cccc([N+](=O)[O-])c2)c(C)n1-c1ccc(Cl)cc1Cl,inconclusive: -59.6%
17,CCOC(=O)C1=C(N)Oc2cc(O)ccc2C1c1cccc([N+](=O)[O-])c1 (stereo not given),active: -68.7%
18,CCCn1c2ccccc2c2cnn(CC(=O)N3CCCC(C(=O)OCC)C3)c(=O)c21 (stereo not given),inconclusive: -45.4%
19,COc1ccc(NC(=O)C(=O)NCCCn2ccnc2)cc1,active: -60.5%
20,O=C(Nc1ccccc1)C1CCCN(C(=O)c2ccc(Cl)cc2)C1 (stereo not given),active: -64.6%
21,NC(=O)c1c(-c2ccc(Cl)cc2Cl)csc1NC(=O)Cc1ccccc1,active: -65.1%
22,Cc1cc([N+](=O)[O-])nn1CCCC(=O)Nc1ccc(Cl)cc1Cl,inconclusive: -54.7%
23,O=C(c1ccc(S(=O)(=O)c2ccc(F)cc2)c([N+](=O)[O-])c1)N1CCCCCC1,inconclusive: -53.9%
24,C[N+]1(CC(O)COCC2COc3ccccc3O2)CCOCC1 (stereo not given),inconclusive: -40%
25,CCCn1c(SC(C)C(=O)N2CCOCC2)nc2ccc(Br)cc2c1=O (stereo not given),inconclusive: -42.4%
26,COCCn1c(SCC(=O)Nc2ccccc2F)nc2c(c1=O)SCC2,inconclusive: -58%
27,COc1ccc(CN(C)C(=O)c2cccc(C(=O)N(C)Cc3ccc(OC)cc3)c2)cc1,active: -71.3%
